## Percent effect of library compounds

From ChEMBL document CHEMBL3988442, “University of Dundee, Small-Polar-MMV Screening Library” (2021).

Mtb cholesterol medium: 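Phenotypic screen: M. tuberculosis growth, cholesterol and DPPC medium, 4 days; the read-out is not stated. Compounds at 50 µM. Direction is inferred from retests: higher values go with more growth inhibition. Of about 69,000 compounds tested this way, about 370 (0.54%) reached 50% or more in at least one test.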
Mtb glucose medium: 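Growth of Mycobacterium tuberculosis over 3 days (7H9 medium with glucose and tyloxapol); the read-out is not stated. Concentration: 50 µM. Direction is inferred from retests: higher values go with more growth inhibition. Size under these conditions: about 69,000 compounds, about 760 of them at 50% or above in at least one test.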

Each number is a percent effect as filed. The controls that fix the scale are not given in the record; negative values are as filed. The compounds are a random part of those screened. Two or more numbers in one place are separate tests of the same structure; such repeats can differ widely.

| Compound | Mtb cholesterol medium | Mtb glucose medium |
|---|---|---|
| `N#Cc1cccc(N2CCC3(CCC(=O)N(CCCO)C3)CC2)n1` | -12.54% | -16.98% |
| `CC(c1ccco1)N(C)Cc1cc2cc3c(cc2[nH]c1=O)OCO3` (configuration not stated) | 4.559% | -0.1786% |
| `CC(C)NC(=O)CN(C)C(=O)c1csc(Cc2ccccc2F)n1` | -10.38% | -8.994% |
| `OCCN1CCC(CNCc2ccccc2OC(F)(F)F)CC1` | -6.905% | -11% |
| `OCc1ccncc1NCc1cnc(-c2ccccn2)s1` | 14.77% | -20.37% |
| `CCn1ccc(-c2cc(C(=O)O)n3nc(C(F)(F)F)c(Br)c3n2)n1` | 13.3% | 26.81% and 4.612% |
| `COCc1cc(NCc2ccccc2OC)ncn1` | -5.546% | 36.28% |
| `CC(=O)Nc1ccc(Cl)c(C(=O)N(C)C(C)c2nccs2)c1` (configuration not stated) | 3.554% | -11.97% |
| `Cc1cnn(CCNCc2cc(-c3ccccc3)no2)c1` | -10.84% | -12.02% and 13.76% |
| `Cc1nc(C)c(C(=O)Nc2cnn(CC(=O)NC3CCCC3)c2)s1` | -20.28% | -7.24% |
| `CN(C)c1nc(NCCc2ccccn2)ncc1F` | -21.23% | 9.817% |
| `O=C(O)C(F)(F)F.O=C(O)C(F)(F)F.O=C(O)C(F)(F)F.[H][C@]12C[C@@H](Cn3cccn3)N(C(C)C)[C@@]1([H])CCN(C1CCOCC1)C2` | -2.082% | -46.74% and 1.606% |
| `O=C1OCCN1CCc1nc(-c2cc3c4c(c2)CC(=O)N4CCC3)cs1` | -11.9% | -7.673% |
| `CCc1n[nH]c(=O)c(C(=O)N2CCSC(C)(C)C2)c1CC` | -9.573% | -17.37% |
| `CN(Cc1ccsc1)C(=O)c1nc(N2CCCC2)ncc1Cl` | 4.003% | 1.682% and 9.352% |
| `CC(C)(C)n1ncc2c1CCCC2NCc1ccsc1` (configuration not stated) | 1.765% | 4.121% |
| `CC(Cn1cccn1)NC(=O)NCc1ccc(S(N)(=O)=O)cc1` (configuration not stated) | -19.77% | -4.808% |
| `Cc1occc1C(=O)N(CCN(C)C)Cc1ccccn1` | -10.48% | 25.93% |
| `O=S(=O)(NCCN1CC=CC1)c1ccc(Cl)cc1` | -10.99% | -7.3% |
| `CC[C@H](CO)NC(=O)c1coc(COc2cccc(F)c2F)n1` | -22.31% | -11.74% |
| `COc1c2ccc(C(=O)NCCCn3ncccc3=O)cc2nn1C` | -2.11% | -3.003% and 37.14% |
| `COCCc1noc(CNCC2CCCN2c2cccnn2)n1` (configuration not stated) | 2.124% | 8.079% |
| `CC(C(=O)N(Cc1ccc(C#N)cc1)CC(F)(F)F)S(C)(=O)=O` (configuration not stated) | 24.54% | 19.18% |
| `Cn1ccnc1CN1CCc2c(COCC3CC3)nn(C)c2C1` | 14.75% | 35.69% |
| `CC(=O)N1CCCN(C(=O)NC(C)c2csc3ccccc23)CC1` (configuration not stated) | 18.79% | 26.2% |
| `CC(=O)N1CCCC2(C1)CN(C(=O)C1CCCCC1)CCO2` (configuration not stated) | -10.46% | 24.13% |
| `COCCOCC(=O)N(C)Cc1ccc(OCc2cccs2)cc1` | 22.15% | 31.83% and 16.49% |
| `[H][C@@]12CCN(Cc3cnn(C)c3)C[C@@]1([H])[C@H](C(=O)Nc1cnccn1)CCO2` | -24.93% | -21.57% |
| `COc1ccc(CN(Cc2cnn(C)c2)CC(C)C)cn1` | 2.338% | 15.17% and -4.445% |
| `CCNc1cc2c(nn1)CCN(C(=O)c1ccc3c(c1)OCO3)C2` | 36.53% | 47.58% |
| `[H][C@@]12CN(Cc3ccccn3)C(=O)N1CCN(S(=O)(=O)c1ccccc1)C2` | -6.773% | 5.942% and 7.73% |
| `COCCNC(=O)Cn1cc(OCc2ccc(F)cc2)c(=O)cc1CO` | -44.73% | -22.43% |
| `c1cnn(CC2CN(CCc3ccncc3)CCO2)c1` (configuration not stated) | -12.17% | -23.84% |
| `CCCc1nc(C)c(C(=O)NCc2ccc(C)n2C)s1` | -4.567% | 2.502% |
| `Cn1cc(C2CC(=O)NC23CCN(c2ncc(F)cn2)CC3)cn1` (configuration not stated) | -31.66% | -16.36% |
| `Cc1ccc(-c2nc(C(=O)N(C)CC(=O)N(C)C)cs2)c(C)c1` | -27.33% | 4.22% and 22.7% |
| `Cc1ccc(OCC2CCCN(c3cc(C(N)=O)ccn3)C2)cc1` (configuration not stated) | 1.335% | 19.1% and 9.372% |
| `CCn1cnc(NC(=O)N2CCC(c3ccc(F)cc3)C2)n1` (configuration not stated) | -4.581% | 16.49% and 5.311% |
| `CCOc1cc(CNC(C)c2ccc(F)cc2)ccn1` (configuration not stated) | 17.57% | -4.872% and -3.965% |
| `COCCc1ncc(CN2CCCC(C(=O)c3ccccc3)C2)cn1` (configuration not stated) | 4.459% | 12.49% |
| `CC(C)c1nc(CN2CCOC(Cn3cncn3)C2)no1` (configuration not stated) | -17.36% | -74.01% and -6.159% |
| `Cc1ccc(S(=O)(=O)Nc2ccc(-n3cccc3C(=O)O)c(C)c2)cc1` | -10.77% and -0.9751% | 16.2% |
| `c1ccc(-n2nc(CNC3CCc4ncnn4C3)c3c2CCC3)cc1` (configuration not stated) | -28.69% | -28.68% |
| `O=C(Nc1nc(-c2ccccc2)ns1)N1CCN(C(=O)C2CC2)CC1` | 11.67% and 6.813% | 7.26% and -6.639% |
| `Cc1cccc(CN(Cc2ccccn2)Cc2ncc(C(C)(C)C)o2)c1` | 10.01% | 15.56% and 20.65% |
| `O=C(NC1CC1)N1CCc2ccc(=O)n(Cc3cccnc3)c2CC1.O=C(O)C(F)(F)F` | -6.23% | -8.804% and -14.35% |
| `COc1c(C)cnc(CNC(=O)CCOCC(C)C)c1C` | 0.003411% | -3.569% |
| `Cc1nn(C)c2c(NCc3ccccn3)ncnc12` | 3.511% | 39.35% |
| `CC1CN(c2ccc(CNC(=O)NCc3ccoc3)cn2)CCO1` (configuration not stated) | -24.81% | -25.88% and -0.8617% |
| `COc1cc(C(C)NCc2cscn2)ccc1SC(F)F` (configuration not stated) | 3.733% and 1.318% | -41.04% |
| `CCCNCc1cn(Cc2ccccc2)nc1-c1cccnc1.Cl` | 3.355% | 15.02% |
| `O=C(O)C(F)(F)F.O=C(O)C(F)(F)F.[H][C@@]12CN(Cc3ccsc3)CCO[C@]1([H])CN(c1ccc(C)nn1)C2` | -11.32% | -7.011% and -7.419% |
| `COc1cccc(CC(=O)N2CCc3ncnc(C)c3CC2)c1` | 12.42% | -5.845% and -1.963% |
| `[H][C@@]12CCN(Cc3nc(C)cs3)C[C@]1([H])OCCN(c1cccnc1)C2=O` | -12.86% | -2.353% and 18.14% |
| `CS(=O)(=O)N1CCC(C(=O)N2CCN(Cc3cccc(Cl)c3)CC2)CC1` | -6.26% | 7.07% |
| `CN1CCC2(CC1)CN(C(=O)c1cccnc1)Cc1ccccc12` | -8.453% | 13.41% |
| `COCCNC(=O)NC(C)COc1ccc(F)cc1F` (configuration not stated) | -10.66% | -11.47% |
| `COCCC(C)NC(=O)N1CCSC(C)(C)C1` (configuration not stated) | 7.627% | 19.14% |
| `CCCS(=O)(=O)N1CCc2c(COCC)cncc2C1.O=C(O)C(F)(F)F` | 4.144% | 5.866% and 7.095% |
| `Cc1nc(O)cc(CN2CCC=C(CN(C)C(=O)c3ccco3)C2)n1` | -0.8493% | 18.31% |
| `CSc1cc2c(cc1NC(=O)N(C)Cc1ccncc1)OCCO2` | 17.38% | 21.47% and -4.135% |
| `CCN1Cc2c(C(=O)NC(C)C)ncn2-c2ccccc2S1(=O)=O` | -6.806% | 17.73% |
| `COc1ccc(C(C)N2CCC(C(=O)NC3CC3)CC2)cc1Cl` (configuration not stated) | 10.51% | -3.829% |
| `CC(Nc1cccc(CN2CCOC2=O)c1)C(=O)NC(N)=O` (configuration not stated) | -2.215% | -33.49% |
| `CCC[C@H]1CN(c2nccc(OC)n2)C[C@@H]1NC(=O)C1CCOCC1` | -4.11% | 6.092% and 20.28% |
| `CC(C)(C)OC(=O)NCC1CCN(C(=O)c2ccccc2O)C1` (configuration not stated) | -3.306% and -6.599% | -10.87% |
| `CCc1nc(N)nc(N2CCCC3(CCOCC3)C2)c1C` | -2.408% | 4.05% and 31.21% |

The first 6 entries again:

| Compound | Mtb cholesterol medium | Mtb glucose medium |
|---|---|---|
| `N#Cc1cccc(N2CCC3(CCC(=O)N(CCCO)C3)CC2)n1` | -12.54% | -16.98% |
| `CC(c1ccco1)N(C)Cc1cc2cc3c(cc2[nH]c1=O)OCO3` (configuration not stated) | 4.559% | -0.1786% |
| `CC(C)NC(=O)CN(C)C(=O)c1csc(Cc2ccccc2F)n1` | -10.38% | -8.994% |
| `OCCN1CCC(CNCc2ccccc2OC(F)(F)F)CC1` | -6.905% | -11% |
| `OCc1ccncc1NCc1cnc(-c2ccccn2)s1` | 14.77% | -20.37% |
| `CCn1ccc(-c2cc(C(=O)O)n3nc(C(F)(F)F)c(Br)c3n2)n1` | 13.3% | 26.81% and 4.612% |